# Experimental data reported in patent US20250249113A1 (Debiopharm Research & Manufacturing S.A., priority 2022, published 2025).
# Experiment: general procedure: hybrid (solid and solution phase) peptide synthesis; 2-CTC resin; Fmoc-Xxx-Wang resin (loading 0.60 mmol/g; Bachem); diisopropyl carbodiimide/HOBT
# Conditions: TFA salt; for purity (crude or final not stated): whole synthesis
# [1] = late stage modification step, UV purity (UPLC-MS)
# [2] = coupling step, UV purity (UPLC-MS)
# [3] = conjugation step, UV purity (UPLC-MS)
substance,measurement,setting,value
AF-Arg-Lys(PEG4-Mal)-Phe-OH,purity (crude or final not stated),UV purity (UPLC-MS),96%
AF-Arg-Lys(PEG4-Mal-Cys-Ac)-Phe-OH,purity (crude or final not stated),UV purity (UPLC-MS),94%
AF-Arg-Phe-Lys(PEG4-Mal)-OH,purity (crude or final not stated),UV purity (UPLC-MS),98%
AF-Arg-Phe-Lys(PEG4-Mal-Cys-Ac)-OH,purity (crude or final not stated),UV purity (UPLC-MS),90%
Boc-Cit-Lys(D-Arg(Pbf))-Tyr-OH,step yield,late stage modification step,46%
same,final HPLC purity,[1],90% UV purity
Boc-Cit-Lys(D-Arg(Pbf)-ma)-Tyr-OH,step yield,late stage modification step,29%
same,final HPLC purity,[1],88% UV purity
Boc-Cit-Lys(Fmoc-D-Arg(Pbf))-Tyr-OMe,step yield,coupling step,73%
same,final HPLC purity,[2],95% UV purity
DM1-Ac-Cit-Lys(D-Arg-ma)-Tyr-OH,conjugation yield,conjugation step,18%
same,final HPLC purity,[3],88% UV purity
DM1-Mal-Phe-Cit-Lys(PEG4-Mal-Cys-Ac)-Phe-OH,purity (crude or final not stated),UV purity (UPLC-MS),97%
DM1-Mal-Phe-Cit-Phe-Lys(PEG4-Mal-Cys-Ac)-OH,purity (crude or final not stated),UV purity (UPLC-MS),94%
DM1-Mal-Phe-Lys-Lys(PEG4-Mal-Cys-Ac)-Phe-OH,purity (crude or final not stated),UV purity (UPLC-MS),98%
Exatecan-Suc-Phe-Cit-Lys(Mtt)-Tyr(OtBu)-OtBu,conjugation yield,conjugation step,46%
same,final HPLC purity,[3],98% UV purity
Exatecan-Suc-Phe-Cit-Lys-Tyr(OtBu)-OtBu,step yield,late stage modification step,13%
same,final HPLC purity,[1],97% UV purity
Fmoc-Phe-Cit-Lys(Mtt)-Tyr(OtBu)-OtBu,step yield,coupling step,92%
same,final HPLC purity,[2],96% UV purity
H-Cit-Lys(D-Arg-ma)-Tyr-OH,step yield,late stage modification step,69%
same,crude HPLC purity,[1],90% UV purity
H-Phe-Cit-Lys(Mtt)-Tyr(OtBu)-OtBu,step yield,late stage modification step,81%
same,final HPLC purity,[1],95% UV purity
